Values of other authors in patent US20090163579A1, “Novel use of nutraceutical compositions” (priority 2006, published 2009).
At least one structure is not confirmed: it was looked up by name or label, or the drawing left a doubt.

Details: cited from earlier work

## OCCc1ccc(O)c(O)c1 [Hydroxytyrosol, hydroxytyrosol]
Fold of epicatechin
  free radical scavenging capacity relative to epicatechin: more than 3 times
Fold of quercetin
  free radical scavenging capacity relative to quercetin: double
